This data set is described as follows: Sensory evaluation (odor, color, taste) of Maillard model reactions in glycerol, buffer or dry conditions. More on the design: key: +: slight; ++: moderate; +++: very strong. Conditions: Example 5; 1 ml water + 9 ml Glycerin, 2.0 h, 120° C. The class given is in vivo, human.

With `N[C@@H](Cc1ccccc1)C(=O)O` [0.1 mMol Phe], the “Intensity of Smell” value is “+”.

Source of the values: patent US11324237B2, “Tasteful natural sweetener and flavor” (EPC Natural Products Co., Ltd., priority 2018, dated 2022).
